Results are given in words; binding and its absence hold for the method and conditions named. Binding seen in cells or lysates may run through a third protein. Some binding calls cover weakened binding; strength is not graded here. Tags and fused reporters may be left off the sequences shown.
Molecular target: T1, JCV TAg (JCV (human polyomavirus)) (UniProt P03072)
T1 sequence: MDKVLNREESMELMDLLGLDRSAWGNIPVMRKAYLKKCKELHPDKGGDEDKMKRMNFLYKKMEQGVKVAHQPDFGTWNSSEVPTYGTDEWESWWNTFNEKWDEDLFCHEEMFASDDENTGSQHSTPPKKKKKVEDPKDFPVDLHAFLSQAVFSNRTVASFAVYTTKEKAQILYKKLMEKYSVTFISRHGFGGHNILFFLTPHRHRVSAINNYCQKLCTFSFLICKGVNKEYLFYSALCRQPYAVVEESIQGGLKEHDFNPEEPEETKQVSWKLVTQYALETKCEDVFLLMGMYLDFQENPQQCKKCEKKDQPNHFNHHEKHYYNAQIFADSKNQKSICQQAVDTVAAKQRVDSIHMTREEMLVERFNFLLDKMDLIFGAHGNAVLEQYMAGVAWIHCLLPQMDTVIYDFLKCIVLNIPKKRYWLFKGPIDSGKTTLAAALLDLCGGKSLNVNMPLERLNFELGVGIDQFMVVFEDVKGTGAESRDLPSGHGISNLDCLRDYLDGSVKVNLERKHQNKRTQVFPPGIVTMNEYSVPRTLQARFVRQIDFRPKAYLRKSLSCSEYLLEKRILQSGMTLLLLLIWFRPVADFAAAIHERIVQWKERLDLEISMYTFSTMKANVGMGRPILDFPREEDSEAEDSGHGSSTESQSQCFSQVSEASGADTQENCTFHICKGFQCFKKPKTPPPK
Test: co-immunoprecipitation with anti-pRb2/p130 immune serum and Western blot with PAB 416, and the reverse, on HJC cell lysates

By UniProt entry, the sequences of proteins in these tests, tags left out.
UniProt Q08999: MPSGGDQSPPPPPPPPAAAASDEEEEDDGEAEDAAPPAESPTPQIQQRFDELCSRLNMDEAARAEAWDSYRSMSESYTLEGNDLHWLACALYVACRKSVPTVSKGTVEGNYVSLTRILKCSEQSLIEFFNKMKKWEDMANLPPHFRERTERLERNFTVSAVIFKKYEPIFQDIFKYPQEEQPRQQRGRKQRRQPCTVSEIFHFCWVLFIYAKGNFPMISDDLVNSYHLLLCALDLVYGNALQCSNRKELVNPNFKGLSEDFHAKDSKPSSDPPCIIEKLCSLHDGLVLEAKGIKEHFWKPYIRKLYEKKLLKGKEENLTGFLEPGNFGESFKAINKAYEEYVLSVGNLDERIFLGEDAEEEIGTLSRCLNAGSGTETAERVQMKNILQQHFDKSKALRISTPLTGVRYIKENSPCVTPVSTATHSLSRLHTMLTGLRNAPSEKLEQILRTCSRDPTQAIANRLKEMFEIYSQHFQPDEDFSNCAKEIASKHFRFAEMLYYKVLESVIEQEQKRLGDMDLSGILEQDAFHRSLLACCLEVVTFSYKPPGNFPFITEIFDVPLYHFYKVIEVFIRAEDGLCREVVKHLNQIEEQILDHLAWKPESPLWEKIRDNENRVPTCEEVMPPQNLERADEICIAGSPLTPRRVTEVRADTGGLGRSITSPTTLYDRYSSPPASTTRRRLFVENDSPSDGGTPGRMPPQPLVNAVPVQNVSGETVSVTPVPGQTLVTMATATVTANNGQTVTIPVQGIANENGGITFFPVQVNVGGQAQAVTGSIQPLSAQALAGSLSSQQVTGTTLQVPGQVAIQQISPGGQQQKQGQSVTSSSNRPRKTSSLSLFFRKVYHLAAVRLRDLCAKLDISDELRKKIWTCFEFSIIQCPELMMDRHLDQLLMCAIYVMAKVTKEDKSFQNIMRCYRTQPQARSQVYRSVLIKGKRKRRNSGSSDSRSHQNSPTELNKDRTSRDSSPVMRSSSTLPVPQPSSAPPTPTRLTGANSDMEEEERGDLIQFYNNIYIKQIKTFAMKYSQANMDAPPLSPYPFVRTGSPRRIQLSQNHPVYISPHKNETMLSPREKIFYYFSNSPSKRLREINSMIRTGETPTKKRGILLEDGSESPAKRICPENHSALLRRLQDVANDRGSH

Substance: pRb2/p130 (from UniProt Q08999 1-1139)
- binding: binds
